Where a chain is given by its changes, count along the chain named. Names and notes keep the numbering of the source. These are yes or no findings as the source states them, for the method shown. For some of these results: Binding seen in cells or lysates may run through a third protein. Some entries that bind do so weakly or less than the wild type. For some of these results: Sequences can lack the tags named with a protein.

In article PMC4491177, “Co-translational capturing of nascent ribosomal proteins by their dedicated chaperones” (Nature Communications, 2015) one finds binding data, which are given here for 13 molecules.

Assay [1] addresses T1, Rpl10(1–20)-(His)6 (S. cerevisiae).
T1 sequence: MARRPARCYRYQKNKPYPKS
The experiment in a line: pull-down; (His)6-tagged Rpl10 variant and Sqt1 variant co-expressed in E. coli from pETDuet-1; Ni-NTA agarose purification from the soluble extract; 50 mM Tris-HCl (pH 7.5), 200 mM NaCl, 1.5 mM MgCl2, 5% glycerol, 0.1% NP-40, 4 °C; imidazole eluate on SDS-PAGE, Coomassie and western blot.

The target of assay [2] is T2, Sqt1 (yeast two-hybrid fusion) (S. cerevisiae) (UniProt P35184).
T2 sequence: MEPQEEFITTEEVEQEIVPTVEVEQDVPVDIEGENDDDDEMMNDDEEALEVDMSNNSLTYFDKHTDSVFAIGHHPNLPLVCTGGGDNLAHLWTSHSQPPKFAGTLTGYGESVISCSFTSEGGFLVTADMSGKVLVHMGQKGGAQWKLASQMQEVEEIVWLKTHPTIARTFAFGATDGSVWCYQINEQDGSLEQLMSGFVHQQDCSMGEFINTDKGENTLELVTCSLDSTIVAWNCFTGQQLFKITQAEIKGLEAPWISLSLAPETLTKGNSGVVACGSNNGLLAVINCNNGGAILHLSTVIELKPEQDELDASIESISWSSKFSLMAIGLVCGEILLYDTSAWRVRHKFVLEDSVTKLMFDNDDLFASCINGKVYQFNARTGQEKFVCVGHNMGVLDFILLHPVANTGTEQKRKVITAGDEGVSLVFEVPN
In words: two-hybrid; data not shown.

For assay [3], the target named is T3, Rpl10-(His)6 (S. cerevisiae) (UniProt P41805).
T3 sequence: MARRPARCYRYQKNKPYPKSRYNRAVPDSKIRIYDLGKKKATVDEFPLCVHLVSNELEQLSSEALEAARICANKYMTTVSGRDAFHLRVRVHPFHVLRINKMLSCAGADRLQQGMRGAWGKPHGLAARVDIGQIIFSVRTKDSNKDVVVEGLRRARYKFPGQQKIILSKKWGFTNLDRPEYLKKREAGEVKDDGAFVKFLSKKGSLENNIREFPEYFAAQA
In words: pull-down; (His)6-tagged Rpl10 variant and Sqt1 variant co-expressed in E. coli from pETDuet-1; Ni-NTA agarose purification from the soluble extract; 50 mM Tris-HCl (pH 7.5), 200 mM NaCl, 1.5 mM MgCl2, 5% glycerol, 0.1% NP-40, 4 °C; imidazole eluate on SDS-PAGE, Coomassie and western blot.

Assay [4] deals with T2, Sqt1 (yeast two-hybrid fusion) (S. cerevisiae). The experiment in a line: two-hybrid; bait fused to the Gal4 DNA-binding domain, prey to the Gal4 activation domain, reporter strain PJ69-4A; HIS3 and ADE2 reporters, plates 3 days at 30 °C.
For assay [5], the target named is T4, Sqt1.53C (yeast two-hybrid fusion) (S. cerevisiae) (UniProt P35184).
T4 sequence: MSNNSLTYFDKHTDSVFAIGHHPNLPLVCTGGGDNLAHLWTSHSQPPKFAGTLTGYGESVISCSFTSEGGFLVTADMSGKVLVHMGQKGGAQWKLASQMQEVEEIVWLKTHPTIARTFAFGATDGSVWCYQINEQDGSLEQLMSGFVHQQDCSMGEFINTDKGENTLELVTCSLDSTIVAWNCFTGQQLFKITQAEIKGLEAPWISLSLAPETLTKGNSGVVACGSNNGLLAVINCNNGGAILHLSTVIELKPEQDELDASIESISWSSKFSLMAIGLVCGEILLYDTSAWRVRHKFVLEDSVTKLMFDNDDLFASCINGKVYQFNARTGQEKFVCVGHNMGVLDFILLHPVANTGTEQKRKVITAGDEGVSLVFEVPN
The assay is described as above.

For assay [6], the target named is T5, Sqt1-TAP (S. cerevisiae) (UniProt P35184).
T5 sequence: T2 sequence
The experiment in a line: affinity purification of a TAP-tagged bait from yeast cells (in vivo co-purification); Sqt1-TAP or NTAP-Rrb1 bait; yEGFP fusions or 2xHA-tagged ribosomal proteins as prey; Supplementary Fig. 3b,c, methods not shown.

In assay [7] the target is T5, Sqt1-TAP (S. cerevisiae). The experiment in a line: tandem-affinity purification (TAP); TAP-tagged bait purified from yeast cell lysates; 50 mM Tris-HCl (pH 7.5), 100 mM NaCl, 1.5 mM MgCl2, 5% glycerol, 0.1% NP-40; final EGTA eluates on SDS-PAGE, Coomassie staining.
The target in assay [8] is T6, Sqt1 D420K (yeast two-hybrid fusion) (S. cerevisiae) (UniProt P35184).
T6 sequence: T2 sequence with D420K
The experiment in a line: two-hybrid; bait fused to the Gal4 DNA-binding domain, prey to the Gal4 activation domain, reporter strain PJ69-4A; HIS3 and ADE2 reporters, plates 3 days at 30 °C.

Assay [9] concerns the target T7, Sqt1 E156K (yeast two-hybrid fusion) (S. cerevisiae) (UniProt P35184).
T7 sequence: T2 sequence with E156K
The description is as above.

Assay [10] deals with T8, Sqt1 E315A (yeast two-hybrid fusion) (S. cerevisiae) (UniProt P35184).
T8 sequence: T2 sequence with E315A
The assay is described as above.

B1: Sqt1.53C-Flag (domain or fragment, UniProt P35184 53-431)
chain: T4 sequence
On to B1, for which the binding entry in assay [1] is “binds”.

B2: first 64 amino acids of Rpl10 (yeast two-hybrid fusion) (domain or fragment, UniProt P41805 1-64)
chain: MARRPARCYRYQKNKPYPKSRYNRAVPDSKIRIYDLGKKKATVDEFPLCVHLVSNELEQLSSEA
As to B2, in [2], the binding result is on record as “binds”.

B3: Sqt1-Flag (protein, UniProt P35184 1-431)
chain: T2 sequence
Turning to B3, the binding result in [1] and in assay [3] was “binds” throughout.

For MARRPARCYRYQKNKPYPKS (domain or fragment) [Rpl10 amino acids 1–20 (yeast two-hybrid fusion)], the binding entry in assay [4] and in assay [5] was “binds” each time.

Turning to MARRPARCYRYQKNKPYPKS [Rpl10(1–20)-yEGFP], in the assay with Sqt1-TAP (S. cerevisiae) [6], the binding result is on record as “binds”.

B4: Rpl10 (endogenous) (protein, UniProt P41805 1-221)
chain: T3 sequence
For the molecule B4, the binding entry with Sqt1-TAP (S. cerevisiae) [7] is listed as “binds”.

B5: Rpl10 Arg10 to alanine (yeast two-hybrid fusion) (protein, UniProt P41805 1-221)
chain: T3 sequence with R10A
Consider B5, for which the binding entry in assay [4] is recorded as “binds”.

B6: Rpl10-2xHA (protein, UniProt P41805 1-221)
chain: T3 sequence
As to B6, in the assay with Sqt1-TAP (S. cerevisiae) [6], the binding entry is given as “binds”.

B7: Rpl10 Arg4 to glutamate (yeast two-hybrid fusion) (protein, UniProt P41805 1-221)
chain: T3 sequence with R4E
As to B7, in assay [4], the binding result is given as “binds”.

B8: Rpl10 Arg10 to glutamate (yeast two-hybrid fusion) (protein, UniProt P41805 1-221)
chain: T3 sequence with R10E
With B8, the binding entry in assay [4] is “no binding”.

B9: Rpl10 double substitution of Arg3/Arg4 to alanine (yeast two-hybrid fusion) (protein, UniProt P41805 1-221)
chain: T3 sequence with R3A, R4A
For the molecule B9, in assay [4], the binding entry is “binds”.

B10: Rpl10.R4A (yeast two-hybrid fusion) (protein, UniProt P41805 1-221)
chain: T3 sequence with R4A
For the molecule B10, the binding entry in [8] was “binds”; in assay [9], “no binding”; in assay [10] it was “no binding”.

B11: Rpl10.R3E (yeast two-hybrid fusion) (protein, UniProt P41805 1-221)
chain: T3 sequence with R3E
Take B11: the binding result is on record as “no binding” in [8], “binds” in assay [9] and “no binding” in assay [10].
